# Screening data

The results are deposited in PubChem (AID1159506; NCATS, 2015).

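Luminescence from an EWS-FLI1 target-promoter (NR0B1) reporter, set against a CMV-promoter reporter, two days after silencing single genes in TC32 Ewing sarcoma cells. Each siRNA was applied at 20 nM. A z-score of the log NR0B1-over-CMV signal, less the median of siRNAs with the same seed; more negative means a stronger specific loss of the NR0B1 reporter.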

The strongest results of the screen are mostly left out here. Sequences are the guide (antisense) strand, without overhang.

UUACGUUCCAGCUGGUCGA against CCDC124 read seed-corrected z-score -0.561. With UCUGUAGUAAAUUGGACCC against RAB21 the assay gave seed-corrected z-score 0.1988. With UUCCAGCCUAUAGUUUUCC against LOC441511 the assay gave seed-corrected z-score -0.5081. Result for UCCGGGUCUCUGAUUGUGG against UBAP1L was seed-corrected z-score 0.5579. Result for UAAUCCGUCAUCGUCCAGG against SETD7 was seed-corrected z-score -0.3446. AAGGGUCUAACUCUUGAGC against MOCS3 read seed-corrected z-score -1.129. With UAACUUCCGAUUCGAGUGC against LOC644841 the assay gave seed-corrected z-score 0.325. AUCAAAACUGCAGUUAUGG against DMBT1 gave seed-corrected z-score -1.488.

UUUGCUAUAGGAACUCGAG against UBE3C read seed-corrected z-score -0.1153. AACCUCAUCACCUCAAUGU against PPP1R12C gave seed-corrected z-score 0.8095. Result for UUUGCUCAUGAGAAUAUCC against ZCWPW2 was seed-corrected z-score 0.2987. UUCUUCGCAUGUAUAGUUC against RDX read seed-corrected z-score 0.3493. Result for AAUCCGUUGAGUUCCUGUU against LOC646999 was seed-corrected z-score 0.4363. UGAGCAAGUAGUUCACAGC against ACOT1 gave seed-corrected z-score -0.2383. Result for UAUACUGUGAGUAAUGAGC against HACD1 was seed-corrected z-score -0.5429. With UUGUCGAUGAUUGUCUCUG against HMGCS1 the assay gave seed-corrected z-score -0.007263.

UCCUCUAUAAUCUUGCUGG against COA4 read seed-corrected z-score 0.3635. UAUGUGAUGUGUCCUGGGA against RRAS read seed-corrected z-score -0.7481. ACCAGUUUCAUUAGCAUCC against NR1H3 read seed-corrected z-score -0.08402. UAAGGACACUUGUAGAUGG against ZNF276 read seed-corrected z-score 0.599. UCAGUGUCUGCAGGUAUCG against STOM gave seed-corrected z-score 0.3439. AAUGGGUUCACAAUGCAUU against GNGT2 read seed-corrected z-score -0.2927. Result for AUCCUGACCAUGGAGAUCU against ASIC4 was seed-corrected z-score 0.1346. AAAGGGUAAAGUGCAUAAC against ARL15 read seed-corrected z-score -0.2306.

UCUACCUCAACAGUCAUGG against AKAP12 gave seed-corrected z-score -0.5354. UAACUUAGUACCUGGGCUC against LINC00312 gave seed-corrected z-score 0.0775. Result for UUUGCGAUUAGAUCCAUAG against CS was seed-corrected z-score -0.4884. AACUCAAUCAUCGUGAUGC against MAP2K6 gave seed-corrected z-score -0.07709. UUCGUCAUAAUGAAGGUAC against TNFRSF11B gave seed-corrected z-score -0.05778. Result for AACAAGAGCAGGAAGUUCC against KLHDC7B was seed-corrected z-score 2.083. Result for UUCGCAAUCGGAUUGAGAC against ARHGAP36 was seed-corrected z-score 0.1339. UCAGUACCAAGUCAUCGGC against ELF3 gave seed-corrected z-score 1.404.

UAGAUUCCUGAGAAGGGCG against SLC25A38 read seed-corrected z-score -0.1555.

For reference, 3 entries once more:

| strand | target gene | seed-corrected z-score |
|---|---|---|
| `AAUGGGUUCACAAUGCAUU` | GNGT2 | -0.2927 |
| `UCUGUAGUAAAUUGGACCC` | RAB21 | 0.1988 |
| `UCCGGGUCUCUGAUUGUGG` | UBAP1L | 0.5579 |